From PMC12537489
Results are given in words; binding and its absence hold for the method and conditions named. In cells and extracts the contact can be indirect. Some entries that bind do so weakly or less than the wild type.

Chains of the proteins cited; added tags and fusions are not shown.
UniProt P61244: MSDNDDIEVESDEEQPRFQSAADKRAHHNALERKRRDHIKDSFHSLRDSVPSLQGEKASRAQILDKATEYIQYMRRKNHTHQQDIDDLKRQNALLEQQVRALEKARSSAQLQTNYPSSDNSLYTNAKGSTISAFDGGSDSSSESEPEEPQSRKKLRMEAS

Molecular target: MAX (human (endogenous in K562)) (UniProt P61244)
Assay: co-IP; lysates of SCR- and shMETTL16-transduced K562 cells at 5 days post-infection, non-denaturing conditions; immunoprecipitated with anti-MAX (anti-IgG as control), Protein-G Dynabeads, eluates analysed by Western blot

binding: binds
B1: MAX Dimerization Protein 4 (MXD4) (protein, UniProt Q14582 1-209)
chain: MELNSLLILLEAAEYLERRDREAEHGYASVLPFDGDFAREKTKAAGLVRKAPNNRSSHNELEKHRRAKLRLYLEQLKQLVPLGPDSTRHTTLSLLKRAKVHIKKLEEQDRRALSIKEQLQQEHRFLKRRLEQLSVQSVERVRTDSTGSAVSTDDSEQEVDIEGMEFGPGELDSVGSSSDADDHYSLQSGTGGDSGFGPHCRRLGRPALS
